Measured values from the supplement of paper PMC10849652.
The list shows a part of the results.

Sequences of proteins named here, by UniProt entry; tags and fusion partners are left off. A change or cut given only in a name is not applied to a line headed by its entry.
UniProt Q71F23: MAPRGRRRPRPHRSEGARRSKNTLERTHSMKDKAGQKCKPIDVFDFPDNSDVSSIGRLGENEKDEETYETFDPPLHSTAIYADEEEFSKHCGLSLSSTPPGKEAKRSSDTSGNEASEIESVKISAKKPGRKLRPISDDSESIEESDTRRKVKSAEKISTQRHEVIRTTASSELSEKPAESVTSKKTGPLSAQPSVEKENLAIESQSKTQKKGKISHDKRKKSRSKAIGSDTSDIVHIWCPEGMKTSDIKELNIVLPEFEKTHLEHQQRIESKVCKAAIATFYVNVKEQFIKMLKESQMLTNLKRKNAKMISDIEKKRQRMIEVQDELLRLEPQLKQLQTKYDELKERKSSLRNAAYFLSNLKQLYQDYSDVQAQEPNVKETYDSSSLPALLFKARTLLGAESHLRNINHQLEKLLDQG
UniProt P49918: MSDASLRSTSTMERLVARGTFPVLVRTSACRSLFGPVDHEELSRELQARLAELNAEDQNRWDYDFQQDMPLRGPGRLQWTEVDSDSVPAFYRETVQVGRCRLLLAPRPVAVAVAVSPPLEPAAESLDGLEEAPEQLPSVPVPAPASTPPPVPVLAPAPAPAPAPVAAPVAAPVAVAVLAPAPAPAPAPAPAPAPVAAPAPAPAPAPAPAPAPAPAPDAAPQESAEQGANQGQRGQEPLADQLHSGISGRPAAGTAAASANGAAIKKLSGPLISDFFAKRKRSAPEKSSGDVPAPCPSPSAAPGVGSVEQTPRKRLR
UniProt P24386: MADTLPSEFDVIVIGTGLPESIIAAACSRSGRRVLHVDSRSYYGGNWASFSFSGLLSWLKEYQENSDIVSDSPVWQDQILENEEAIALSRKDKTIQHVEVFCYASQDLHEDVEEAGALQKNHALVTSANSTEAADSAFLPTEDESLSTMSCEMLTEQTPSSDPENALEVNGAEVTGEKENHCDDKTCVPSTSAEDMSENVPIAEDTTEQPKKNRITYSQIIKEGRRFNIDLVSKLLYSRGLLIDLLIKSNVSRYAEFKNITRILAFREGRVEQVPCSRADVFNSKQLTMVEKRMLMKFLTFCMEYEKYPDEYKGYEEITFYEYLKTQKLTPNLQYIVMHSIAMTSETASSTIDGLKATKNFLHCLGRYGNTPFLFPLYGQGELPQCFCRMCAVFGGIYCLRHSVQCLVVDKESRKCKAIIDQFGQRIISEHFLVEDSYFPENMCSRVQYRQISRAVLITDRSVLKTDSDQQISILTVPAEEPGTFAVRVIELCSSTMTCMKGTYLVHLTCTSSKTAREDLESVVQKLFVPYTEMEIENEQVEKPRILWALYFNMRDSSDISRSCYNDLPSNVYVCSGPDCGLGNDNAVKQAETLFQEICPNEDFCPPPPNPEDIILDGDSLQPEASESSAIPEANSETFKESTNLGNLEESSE
UniProt Q5VXU3: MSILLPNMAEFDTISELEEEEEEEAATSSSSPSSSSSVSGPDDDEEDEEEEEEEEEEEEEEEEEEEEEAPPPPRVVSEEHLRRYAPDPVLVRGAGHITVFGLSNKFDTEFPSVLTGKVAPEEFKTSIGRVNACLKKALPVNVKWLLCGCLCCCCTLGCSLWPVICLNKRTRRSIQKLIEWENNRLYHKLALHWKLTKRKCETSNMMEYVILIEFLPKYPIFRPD
UniProt P00751, whole entry, looked up: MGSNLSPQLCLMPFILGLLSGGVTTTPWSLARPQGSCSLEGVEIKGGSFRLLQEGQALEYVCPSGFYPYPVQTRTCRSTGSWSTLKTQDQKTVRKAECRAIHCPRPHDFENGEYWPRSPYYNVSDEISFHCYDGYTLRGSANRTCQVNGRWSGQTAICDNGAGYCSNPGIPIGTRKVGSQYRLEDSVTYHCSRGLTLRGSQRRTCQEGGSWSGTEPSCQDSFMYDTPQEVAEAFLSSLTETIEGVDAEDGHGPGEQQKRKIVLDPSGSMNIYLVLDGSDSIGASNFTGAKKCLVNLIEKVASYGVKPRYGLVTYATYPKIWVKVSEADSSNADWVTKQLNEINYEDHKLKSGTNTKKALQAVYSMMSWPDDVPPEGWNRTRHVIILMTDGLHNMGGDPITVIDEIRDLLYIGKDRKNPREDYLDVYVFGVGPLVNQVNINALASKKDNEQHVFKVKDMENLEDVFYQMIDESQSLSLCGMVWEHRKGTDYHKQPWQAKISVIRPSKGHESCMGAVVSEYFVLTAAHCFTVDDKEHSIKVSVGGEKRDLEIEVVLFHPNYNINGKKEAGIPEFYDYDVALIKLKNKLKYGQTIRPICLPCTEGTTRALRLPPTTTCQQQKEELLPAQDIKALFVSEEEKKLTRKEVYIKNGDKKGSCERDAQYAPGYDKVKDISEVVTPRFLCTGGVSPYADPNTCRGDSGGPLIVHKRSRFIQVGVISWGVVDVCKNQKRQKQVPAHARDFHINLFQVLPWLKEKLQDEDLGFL
UniProt Q00535, whole entry, looked up: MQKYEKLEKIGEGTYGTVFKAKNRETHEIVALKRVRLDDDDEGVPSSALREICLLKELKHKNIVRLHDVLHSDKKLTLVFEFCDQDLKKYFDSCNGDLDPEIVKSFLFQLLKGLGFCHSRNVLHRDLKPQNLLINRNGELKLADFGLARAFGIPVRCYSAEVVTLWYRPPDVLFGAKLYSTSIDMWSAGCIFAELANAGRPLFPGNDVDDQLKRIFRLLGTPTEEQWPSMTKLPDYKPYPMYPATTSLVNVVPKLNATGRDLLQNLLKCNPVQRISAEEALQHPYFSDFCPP
UniProt Q5VT06: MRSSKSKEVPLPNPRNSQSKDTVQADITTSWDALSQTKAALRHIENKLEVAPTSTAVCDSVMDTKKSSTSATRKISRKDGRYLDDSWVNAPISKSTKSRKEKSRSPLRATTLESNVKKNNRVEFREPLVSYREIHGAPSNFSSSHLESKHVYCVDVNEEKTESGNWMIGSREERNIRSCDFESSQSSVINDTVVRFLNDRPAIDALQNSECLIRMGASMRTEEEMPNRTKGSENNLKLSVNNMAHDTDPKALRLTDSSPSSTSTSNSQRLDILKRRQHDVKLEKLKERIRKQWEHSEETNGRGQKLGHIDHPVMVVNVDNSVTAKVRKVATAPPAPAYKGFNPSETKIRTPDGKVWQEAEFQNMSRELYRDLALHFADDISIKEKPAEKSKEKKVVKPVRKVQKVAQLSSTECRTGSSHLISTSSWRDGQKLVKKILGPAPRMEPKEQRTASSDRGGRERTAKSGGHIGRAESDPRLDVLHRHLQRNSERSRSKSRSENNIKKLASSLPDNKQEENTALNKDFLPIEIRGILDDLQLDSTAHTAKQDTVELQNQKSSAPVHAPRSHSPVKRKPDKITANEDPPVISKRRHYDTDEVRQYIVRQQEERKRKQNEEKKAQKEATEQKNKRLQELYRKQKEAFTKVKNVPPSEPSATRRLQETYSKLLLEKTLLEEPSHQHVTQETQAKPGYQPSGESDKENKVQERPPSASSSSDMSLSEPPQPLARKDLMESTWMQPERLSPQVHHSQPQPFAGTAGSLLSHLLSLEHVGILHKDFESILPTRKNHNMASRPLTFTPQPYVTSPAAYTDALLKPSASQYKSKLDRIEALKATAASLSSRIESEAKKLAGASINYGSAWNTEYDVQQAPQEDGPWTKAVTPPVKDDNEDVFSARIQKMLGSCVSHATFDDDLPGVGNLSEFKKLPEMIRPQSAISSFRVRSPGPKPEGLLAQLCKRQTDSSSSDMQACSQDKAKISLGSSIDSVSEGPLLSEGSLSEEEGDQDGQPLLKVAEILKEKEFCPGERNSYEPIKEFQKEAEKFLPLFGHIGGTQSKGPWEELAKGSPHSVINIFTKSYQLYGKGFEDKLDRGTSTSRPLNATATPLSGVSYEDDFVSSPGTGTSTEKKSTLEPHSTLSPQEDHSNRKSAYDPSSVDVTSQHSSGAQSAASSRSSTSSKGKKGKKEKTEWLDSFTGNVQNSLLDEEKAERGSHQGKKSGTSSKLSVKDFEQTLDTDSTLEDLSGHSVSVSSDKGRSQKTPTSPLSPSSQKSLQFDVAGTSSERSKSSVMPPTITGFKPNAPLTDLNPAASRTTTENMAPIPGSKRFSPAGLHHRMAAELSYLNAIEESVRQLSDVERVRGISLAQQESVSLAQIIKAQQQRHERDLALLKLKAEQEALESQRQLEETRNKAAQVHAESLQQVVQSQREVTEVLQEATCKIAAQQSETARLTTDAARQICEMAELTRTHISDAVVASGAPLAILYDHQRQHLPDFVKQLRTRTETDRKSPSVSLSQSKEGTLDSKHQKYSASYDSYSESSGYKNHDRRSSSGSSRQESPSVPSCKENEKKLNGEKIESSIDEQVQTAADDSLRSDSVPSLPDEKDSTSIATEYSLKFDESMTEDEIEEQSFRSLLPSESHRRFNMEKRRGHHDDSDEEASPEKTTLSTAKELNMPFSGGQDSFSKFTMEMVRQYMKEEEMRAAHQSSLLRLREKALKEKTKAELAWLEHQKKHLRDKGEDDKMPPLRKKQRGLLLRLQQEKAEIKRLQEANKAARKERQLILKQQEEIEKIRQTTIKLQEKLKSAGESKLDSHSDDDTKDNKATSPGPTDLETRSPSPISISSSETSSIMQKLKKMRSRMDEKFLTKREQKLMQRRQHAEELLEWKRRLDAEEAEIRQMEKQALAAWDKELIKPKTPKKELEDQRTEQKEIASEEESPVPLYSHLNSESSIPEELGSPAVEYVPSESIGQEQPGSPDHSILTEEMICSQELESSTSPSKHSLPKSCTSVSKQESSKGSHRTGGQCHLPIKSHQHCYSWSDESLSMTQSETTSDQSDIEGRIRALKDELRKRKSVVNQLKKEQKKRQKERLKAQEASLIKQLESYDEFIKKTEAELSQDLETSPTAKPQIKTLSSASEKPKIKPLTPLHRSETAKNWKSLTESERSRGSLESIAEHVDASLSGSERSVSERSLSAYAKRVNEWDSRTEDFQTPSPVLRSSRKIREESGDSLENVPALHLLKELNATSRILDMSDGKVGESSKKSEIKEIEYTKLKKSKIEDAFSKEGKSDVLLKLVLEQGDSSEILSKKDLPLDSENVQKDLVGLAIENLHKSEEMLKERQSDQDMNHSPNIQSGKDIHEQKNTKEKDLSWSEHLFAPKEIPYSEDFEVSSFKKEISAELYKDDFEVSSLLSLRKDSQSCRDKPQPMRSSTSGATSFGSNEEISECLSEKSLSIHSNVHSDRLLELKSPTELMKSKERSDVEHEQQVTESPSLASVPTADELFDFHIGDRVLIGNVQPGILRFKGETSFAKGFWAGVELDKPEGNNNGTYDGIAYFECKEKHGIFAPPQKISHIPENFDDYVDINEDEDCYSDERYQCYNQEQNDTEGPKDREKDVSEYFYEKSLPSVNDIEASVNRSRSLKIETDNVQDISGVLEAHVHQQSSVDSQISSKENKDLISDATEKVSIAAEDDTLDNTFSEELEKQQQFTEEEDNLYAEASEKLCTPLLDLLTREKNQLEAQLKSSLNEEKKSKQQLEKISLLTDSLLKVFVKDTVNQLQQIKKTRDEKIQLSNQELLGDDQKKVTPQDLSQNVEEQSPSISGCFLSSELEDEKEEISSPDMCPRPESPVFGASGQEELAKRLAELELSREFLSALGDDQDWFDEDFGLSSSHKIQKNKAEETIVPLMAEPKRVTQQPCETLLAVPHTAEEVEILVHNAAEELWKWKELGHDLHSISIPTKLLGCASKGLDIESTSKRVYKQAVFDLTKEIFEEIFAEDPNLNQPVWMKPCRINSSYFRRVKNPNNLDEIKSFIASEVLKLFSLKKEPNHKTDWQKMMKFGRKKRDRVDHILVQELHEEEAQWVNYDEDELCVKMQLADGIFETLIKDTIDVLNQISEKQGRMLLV
UniProt Q6ZMG9: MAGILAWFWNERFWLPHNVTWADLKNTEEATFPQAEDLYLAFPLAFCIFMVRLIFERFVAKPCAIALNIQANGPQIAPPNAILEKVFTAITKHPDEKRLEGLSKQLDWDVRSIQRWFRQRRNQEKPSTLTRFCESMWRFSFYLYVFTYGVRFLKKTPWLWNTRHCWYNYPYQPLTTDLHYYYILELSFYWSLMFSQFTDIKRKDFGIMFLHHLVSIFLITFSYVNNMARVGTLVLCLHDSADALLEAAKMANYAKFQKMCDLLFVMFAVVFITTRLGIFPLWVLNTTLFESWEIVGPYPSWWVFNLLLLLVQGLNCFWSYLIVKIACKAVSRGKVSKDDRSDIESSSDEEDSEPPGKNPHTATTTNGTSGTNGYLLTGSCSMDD
UniProt O14613: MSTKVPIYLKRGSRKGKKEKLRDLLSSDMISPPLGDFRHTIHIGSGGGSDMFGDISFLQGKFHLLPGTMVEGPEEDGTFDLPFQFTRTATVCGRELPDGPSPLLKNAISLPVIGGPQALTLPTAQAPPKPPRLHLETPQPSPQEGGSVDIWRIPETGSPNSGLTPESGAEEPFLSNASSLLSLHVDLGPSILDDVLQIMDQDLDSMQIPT

How the values were obtained:
Test in all cases: log2 fold change, soluble protein after heating vs DMSO (PISA); higher = thermal stabilisation; K562 cells, 10 uM, 30 min; active = over 0.2 and 3.5 SD of the protein, either way, in both replicates (recomputed)
[1] = compound: CC1=C(C=C(C=C1)NC(=O)C2=CC(=CC=C2)C(C)(C)C#N)NC3=CC4=C(C=C3)N=CN(C4=O)C
In short: (§1)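 Aliquots of K562 cells (2×10^6 cells/mL) treated with 10 μM compound for 30 min were heated for 3 min over 48°C-58°C. After pooling and extraction in PBS with 0.5% NP-40 at 4°C, soluble protein from a 21,000xg, 90 min spin was quantified by TMTpro 16plex LC-MS/MS with channel sums equalised. Thermal stability is expressed against control samples, from duplicates, as a log2 fold change.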

[2] = compound: CC1=CC=C(C=C1)SC2=C3C=C(SC3=CN=C2)C(=O)N
In short: as §1

[3] = compound: CC1=NC(=CC=C1)C2=C(N=C(N2)C(C)(C)C)C3=CC4=NC=CN=C4C=C3
In short: as §1

Nexturastat A = compound: CCCCN(Cc1ccc(C(=O)NO)cc1)C(=O)Nc1ccccc1 [Nexturastat A]
In short: as §1

[4] = compound: CCCS(=O)(=O)Nc1ccc(F)c(C(=O)c2c[nH]c3ncc(Cl)cc23)c1F
In short: as §1

givinostat = compound: CCN(CC)Cc1ccc2cc(COC(=O)Nc3ccc(C(=O)NO)cc3)ccc2c1 [givinostat]
In short: as §1

volasertib = compound: CC[C@@H]1C(=O)N(C)c2cnc(Nc3ccc(C(=O)N[C@H]4CC[C@H](N5CCN(CC6CC6)CC5)CC4)cc3OC)nc2N1C(C)C [volasertib]
In short: as §1

epoxomicin = compound: CC[C@H](C)[C@@H](C(=O)N[C@@H]([C@@H](C)O)C(=O)N[C@@H](CC(C)C)C(=O)[C@]1(CO1)C)NC(=O)[C@H]([C@@H](C)CC)N(C)C(=O)C [epoxomicin]
In short: as §1

[5] = compound: CCn1c(C(=O)N(C2CC2)C2CC2)cc2c3c(ncn3C)c(Nc3cc(C)n(C)n3)nc21
In short: as §1

[6] = compound: CN1C2=C(C3=C1C(=O)N(N=C3)CC4=CC(=CC=C4)N)SC(=C2)S(=O)C
In short: as §1

[7] = compound: CC1=C(C=C(C=C1)NC(=O)C2=CC(=CC=C2)N(C)C)NC(=O)C3=CC=C(C=C3)O
In short: as §1

[8] = compound: CCCc1cc(C)[nH]c(=O)c1CNC(=O)c1cc(-c2ccnc(N3CCN(C)CC3)c2)cc2c1cnn2C(C)C
In short: as §1

barasertib = compound: CCN(CCCOc1ccc2c(Nc3cc(CC(=O)Nc4cccc(F)c4)[nH]n3)ncnc2c1)CCOP(=O)(O)O [barasertib]
In short: as §1

[9] = compound: CC[C@@H]1C(=O)N(C)c2cnc(Nc3ccc(C(=O)NC4CCN(C)CC4)cc3OC)nc2N1C1CCCC1
In short: as §1

[10] = compound: CCn1cc(-c2ccnc3[nH]c(-c4cccc(CN(C)C)c4)cc23)c(-c2ccc(NC(=O)N(C)C)cc2)n1
In short: as §1

rosiglitazone = compound: CN(CCOC1=CC=C(C=C1)C[C@H]2C(=O)NC(=O)S2)C3=CC=CC=N3 (racemic) [rosiglitazone]
In short: as §1

[11] = compound: CN1CCC(CNc2ccc3ncc(-c4cccc(OC(F)(F)F)c4)n3n2)CC1
In short: as §1

vemurafenib = compound: CCCS(=O)(=O)Nc1ccc(F)c(C(=O)c2c[nH]c3ncc(-c4ccc(Cl)cc4)cc23)c1F [vemurafenib]
In short: as §1

[12] = compound: CN(C)CC(=O)Nc1ccc2[nH]c(=O)c3ccccc3c2c1
In short: as §1

[13] = compound: CC[C@H](C)N1C=C(C2=C(C=C(C=C21)C3=CN=C(C=C3)N4CCNCC4)C(=O)NCC5=C(C=C(NC5=O)C)C)C
In short: as §1

Target	log2 fold change [1]	log2 fold change [2]	log2 fold change [3]	log2 fold change (Nexturastat A)	log2 fold change [4]	log2 fold change (givinostat)	log2 fold change (volasertib)	log2 fold change (epoxomicin)	log2 fold change [5]	log2 fold change [6]	log2 fold change [7]	log2 fold change [8]	log2 fold change (barasertib)	log2 fold change [9]	log2 fold change [10]	log2 fold change (rosiglitazone)	log2 fold change [11]	log2 fold change (vemurafenib)	log2 fold change [12]	log2 fold change [13]
CENPU (UniProt Q71F23)	inactive: 0.148	inactive: -0.583	inactive: -0.075	inactive: 0.114	inactive: 0.097	inactive: 0.09	inactive: -0.209	inactive: 0.007	inactive: -0.234	inactive: 0.193	–	–	–	–	–	–	–	–	–	–
CDKN1C (UniProt P49918)	inactive: 0.044	–	–	inactive: 0.091	–	–	–	inactive: 0.571	–	inactive: 0.002	inactive: -0.021	inactive: 0.05	inactive: -0.037	inactive: 0.242	inactive: -0.363	inactive: -0.004	inactive: 0.172	–	–	–
CHM (UniProt P24386)	inactive: 0.234	inactive: -0.032	inactive: -0.268	inactive: 0.096	inactive: -0.076	inactive: 0.014	inactive: -0.113	inactive: -0.022	inactive: -0.051	inactive: -0.023	inactive: -0.034	inactive: -0.089	–	inactive: -0.004	inactive: 0.079	–	inactive: 0.023	inactive: -0.064	inactive: 0.033	–
CHIC1 (UniProt Q5VXU3)	inactive: -0.096	inactive: -0.015	–	inactive: 0.216	inactive: -0.089	inactive: -0.134	inactive: -0.177	inactive: -0.422	inactive: -0.045	inactive: 0.029	inactive: -0.064	inactive: -0.352	inactive: 0.175	inactive: 0.1	inactive: -0.045	inactive: 0.108	inactive: -0.076	–	–	inactive: -0.157
CEP97 isoform 2 (UniProt Q8IW35)	inactive: 0.032	inactive: -0.041	inactive: -0.058	inactive: 0.032	inactive: 0.012	inactive: -0.018	inactive: -0.258	inactive: -0.071	inactive: -0.041	inactive: 0.148	inactive: -0.062	–	–	inactive: -0.021	–	–	–	inactive: 0.069	inactive: 0.104	inactive: 0.044
CFB (UniProt P00751)	inactive: -0.433	–	–	–	–	inactive: -0.202	–	–	inactive: 0.154	inactive: 0.347	inactive: 0.5	inactive: -0.33	inactive: 0.04	inactive: -0.366	inactive: 0.107	inactive: 0.047	inactive: 0.067	inactive: 0.18	inactive: -0.071	inactive: -0.128
CDK5 (UniProt Q00535)	inactive: -0.053	inactive: 0.001	inactive: -0.008	inactive: -0.002	inactive: 0.058	inactive: 0.003	active: -0.259	inactive: 0	–	inactive: -0.014	inactive: -0.009	inactive: 0.078	–	inactive: -0.087	inactive: -0.039	–	inactive: 0.025	inactive: 0.031	inactive: 0.002	inactive: 0.095
CEP120 (UniProt Q8N960)	inactive: 0.117	inactive: -0.242	inactive: -0.349	inactive: 0.33	inactive: 0.034	–	inactive: -0.043	inactive: -0.062	–	–	inactive: -0.058	inactive: 0.41	inactive: -0.047	–	–	inactive: 0.152	–	inactive: 0.006	inactive: -0.101	–
CEP350 (UniProt Q5VT06)	inactive: 0.02	inactive: 0.114	inactive: -0.153	inactive: -0.173	inactive: 0.076	–	inactive: -0.201	inactive: -0.049	–	inactive: 0.145	inactive: 0.009	inactive: 0.118	–	inactive: 0.039	inactive: 0.056	–	inactive: 0.13	–	–	inactive: 0.097
CERS6 isoform 2 (UniProt Q6ZMG9)	inactive: -0.099	inactive: 0.022	–	inactive: -0.083	inactive: 0	inactive: -0.012	inactive: 0.07	inactive: -0.034	inactive: 0.066	inactive: 0.021	–	inactive: 0.048	inactive: 0.022	inactive: 0.007	inactive: -0.005	inactive: -0.004	inactive: -0.013	inactive: -0.041	inactive: -0.021	inactive: 0.003
CDC42EP2 (UniProt O14613)	inactive: 0.072	–	–	inactive: 0.061	–	inactive: 0.099	–	inactive: 0.384	inactive: 0.024	–	–	–	inactive: 0.123	–	–	inactive: -0.198	–	–	–	–
